Measured values taken from article PMC7862700.
Only a part is listed here, and it is no random draw. For some assays here: At the low end of the ranking, values are background and their order means little.

Each sequence was assayed against T1, ELK1 (UniProt P19419) (assay: DAPPL (digital affinity profiling via proximity ligation, sequencing)). Settings: 10 mM Tris-HCl pH 7.5, 50 mM NaCl, 1 mM DTT, 4% glycerol, room temperature, 30 min; GST-TFs on glutathione beads, 16-mer random dsDNA library, 0.1% …; high values mean tight binding; double strand, one strand shown; scale: fold enrichment (6-mer frequency, TF over GST control).
T1 sequence: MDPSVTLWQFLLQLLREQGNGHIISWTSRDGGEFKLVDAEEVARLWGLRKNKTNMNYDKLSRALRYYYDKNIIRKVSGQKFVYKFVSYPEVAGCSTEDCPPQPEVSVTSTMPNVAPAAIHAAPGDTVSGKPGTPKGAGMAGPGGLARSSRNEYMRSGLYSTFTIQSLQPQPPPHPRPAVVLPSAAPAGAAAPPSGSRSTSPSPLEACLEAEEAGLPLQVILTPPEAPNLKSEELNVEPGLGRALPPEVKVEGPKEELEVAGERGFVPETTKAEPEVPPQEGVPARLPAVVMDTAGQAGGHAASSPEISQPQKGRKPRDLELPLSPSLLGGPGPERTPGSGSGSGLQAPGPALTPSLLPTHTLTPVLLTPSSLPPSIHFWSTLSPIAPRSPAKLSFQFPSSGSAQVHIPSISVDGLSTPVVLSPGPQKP
TCAATC gave a binding signal of 1.08.
TCCTGT gave a binding signal of 1.72.
GTATGA gave a binding signal of 0.974.
For AAGCTT, the binding signal was 1.33.
Work on GATTTG yielded a binding signal of 1.16.
In the case of TGGACA, the binding signal is reported as 1.07.
For AAGGGT, the binding signal was 1.01.
In the case of CTTCCG, the binding signal is reported as 8.14.
TCCACT gave a binding signal of 1.52.
GTGCTA was tested, and the binding signal was 1.09.
Work on CAATTA yielded a binding signal of 1.11.

What follows are sequences tested against T2, ELK3 (UniProt P41970) in the same assay as above. Settings: 10 mM Tris-HCl pH 7.5, 50 mM NaCl, 1 mM DTT, 4% glycerol, room temperature, 30 min; GST-TFs on glutathione beads, 16-mer random dsDNA library, 0.1% …; high values mean tight binding; double strand, one strand shown; scale: fold enrichment (6-mer frequency, TF over GST control).
T2 sequence: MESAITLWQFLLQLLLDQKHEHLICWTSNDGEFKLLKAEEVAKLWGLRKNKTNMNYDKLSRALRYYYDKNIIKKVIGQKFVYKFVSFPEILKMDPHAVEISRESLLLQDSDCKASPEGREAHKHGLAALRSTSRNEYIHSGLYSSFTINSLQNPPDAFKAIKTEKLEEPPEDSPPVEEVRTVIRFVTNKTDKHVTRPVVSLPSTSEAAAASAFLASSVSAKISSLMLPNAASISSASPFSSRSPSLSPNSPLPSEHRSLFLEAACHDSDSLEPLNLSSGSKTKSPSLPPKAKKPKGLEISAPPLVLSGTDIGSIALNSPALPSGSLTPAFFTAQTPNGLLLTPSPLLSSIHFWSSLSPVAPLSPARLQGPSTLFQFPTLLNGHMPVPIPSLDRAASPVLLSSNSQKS
TCAATC showed a binding signal of 0.977.
For TCCTGT, the binding signal was 1.88.
For GTATGA, the binding signal was 0.966.
For AAGCTT, the binding signal was 1.31.
GATTTG showed a binding signal of 0.953.
TGGACA showed a binding signal of 1.07.
For AAGGGT, the binding signal was 0.952.
In the case of CTTCCG, the binding signal is reported as 9.13.
Sequence TCCACT has a binding signal of 1.49.
GTGCTA showed a binding signal of 1.14.
For CAATTA, the binding signal was 1.05.

Each sequence was assayed against T3, ETS2 (UniProt P15036) in the same assay as above. Settings: 10 mM Tris-HCl pH 7.5, 50 mM NaCl, 1 mM DTT, 4% glycerol, room temperature, 30 min; GST-TFs on glutathione beads, 16-mer random dsDNA library, 0.1% …; high values mean tight binding; double strand, one strand shown; scale: fold enrichment (6-mer frequency, TF over GST control).
T3 sequence: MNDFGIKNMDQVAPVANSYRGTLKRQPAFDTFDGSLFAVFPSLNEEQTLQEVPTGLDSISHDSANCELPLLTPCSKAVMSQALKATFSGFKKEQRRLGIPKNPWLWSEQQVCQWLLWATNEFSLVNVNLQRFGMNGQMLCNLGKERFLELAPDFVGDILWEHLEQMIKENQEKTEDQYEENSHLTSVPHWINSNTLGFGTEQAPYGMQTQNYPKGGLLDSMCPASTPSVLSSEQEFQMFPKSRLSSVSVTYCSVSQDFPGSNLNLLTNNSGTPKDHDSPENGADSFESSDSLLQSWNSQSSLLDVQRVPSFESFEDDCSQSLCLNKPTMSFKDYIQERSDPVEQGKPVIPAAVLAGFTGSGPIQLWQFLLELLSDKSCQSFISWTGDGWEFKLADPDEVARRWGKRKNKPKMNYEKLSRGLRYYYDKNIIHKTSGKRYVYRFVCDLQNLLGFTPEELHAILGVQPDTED
GAAGTG was tested, and the binding signal was 1.55.
ATGCCC showed a binding signal of 1.29.
In the case of TTCATG, the binding signal is reported as 1.33.
In the case of CTTCCC, the binding signal is reported as 2.32.
With ATGTGG the binding signal was 1.18.
Sequence TAAGTT has a binding signal of 1.38.
Sequence CATAAC has a binding signal of 1.19.
CATGAT showed a binding signal of 1.07.
TGATAA gave a binding signal of 1.01.
In the case of AGGTCT, the binding signal is reported as 1.2.
GTTATT gave a binding signal of 1.14.
For TACAAT, the binding signal was 1.34.
In the case of AATTAT, the binding signal is reported as 1.27.
In the case of GCTCAT, the binding signal is reported as 1.26.
Sequence ACTTGG has a binding signal of 1.16.
For ACCCTC, the binding signal was 1.19.
Work on TTTAAT yielded a binding signal of 1.37.
In the case of TAATAT, the binding signal is reported as 1.24.
GATGCG was tested, and the binding signal was 1.2.
CTTTGC showed a binding signal of 1.34.
In the case of ACAGCT, the binding signal is reported as 1.12.
CACAGC gave a binding signal of 1.01.
CTGCGT was tested, and the binding signal was 1.15.
For CCATTA, the binding signal was 1.12.
In the case of ACCTCT, the binding signal is reported as 1.23.
In the case of GGATAT, the binding signal is reported as 1.66.
Work on TTTTCT yielded a binding signal of 1.32.
ATGAAG was tested, and the binding signal was 1.06.
